The supplement of paper PMC6078165
Values are relative to the signal before dosing, not to a vehicle control; the signal also falls without drug.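 Fibroblast labels name human fibroblasts: mostly primary ones from tissues such as uterus (C12385, HUF), lung (H6013), bone (Hs27A), adrenal (HADF) and skin (WS1), plus mammary HMF and breast cancer-associated Hs343T. The cancer cells are basal-like or mesenchymal-like triple-negative breast cancer lines. The paper calls a changed response a hit when it shifts by more than 3x the replicate standard deviation. The tissue of the other fibroblasts is not given here.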

Test system: HCC1143
Experiment: relative JC-1 red fluorescence (viability) vs pre-drug, coculture with fibroblast (fraction); higher = more viable cancer cells
Method: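 JC-1 labelled TNBC cells cocultured 1:1 (1,500 cells each) with CellTrace Violet stained primary or stromal fibroblasts in 384-well plates in FluoroBrite medium, treated with one of 42 anticancer drugs at 0.1, 1, 10 or 100 uM. JC-1 red fluorescence (mitochondrial integrity in cancer cells only) was read by plate reader every 8 h for 72 h. Values are normalised to each well's pre-drug value. The stock of one drug was tenfold lower, so its dose labels may be too high.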

CC(=O)O[C@H]1C(=O)[C@@]2(C)[C@H]([C@H](OC(=O)c3ccccc3)[C@]3(O)C[C@H](OC(=O)[C@H](O)[C@@H](NC(=O)c4ccccc4)c4ccccc4)C(C)=C1C3(C)C)[C@]1(OC(C)=O)CO[C@@H]1C[C@@H]2O [Paclitaxel]
Conditions | relative JC-1 red fluorescence
0.1 µM, 56 h, coculture fibroblast: Hs5 | 0.653
0.1 µM, 56 h, coculture fibroblast: Hs27A | 0.506
0.1 µM, 56 h, coculture fibroblast: Hs343T | 0.495
0.1 µM, 56 h, coculture fibroblast: WS1 | 0.345
0.1 µM, 64 h, coculture fibroblast: C12385 | 0.511
0.1 µM, 64 h, coculture fibroblast: H6013 | 0.518
0.1 µM, 64 h, coculture fibroblast: H6019 | 0.3877
0.1 µM, 64 h, coculture fibroblast: H6076 | 0.539
0.1 µM, 64 h, coculture fibroblast: H6231 | 0.453
0.1 µM, 64 h, coculture fibroblast: HADF | 0.384
0.1 µM, 64 h, coculture fibroblast: HCFa | 0.442
0.1 µM, 64 h, coculture fibroblast: HCPF | 0.509
0.1 µM, 64 h, coculture fibroblast: HHSteC | 0.414
0.1 µM, 64 h, coculture fibroblast: HMF | 0.518
0.1 µM, 64 h, coculture fibroblast: HPFa | 0.395
0.1 µM, 64 h, coculture fibroblast: HUF | 0.396
0.1 µM, 64 h, coculture fibroblast: Hs5 | 0.621
0.1 µM, 64 h, coculture fibroblast: Hs27A | 0.498
0.1 µM, 64 h, coculture fibroblast: Hs343T | 0.479
0.1 µM, 64 h, coculture fibroblast: WS1 | 0.337
0.1 µM, 72 h, coculture fibroblast: C12385 | 0.512
0.1 µM, 72 h, coculture fibroblast: H6013 | 0.464
0.1 µM, 72 h, coculture fibroblast: H6019 | 0.3742
0.1 µM, 72 h, coculture fibroblast: H6076 | 0.57
0.1 µM, 72 h, coculture fibroblast: H6231 | 0.444
0.1 µM, 72 h, coculture fibroblast: HADF | 0.328
0.1 µM, 72 h, coculture fibroblast: HCFa | 0.417
0.1 µM, 72 h, coculture fibroblast: HCPF | 0.505
0.1 µM, 72 h, coculture fibroblast: HHSteC | 0.341
0.1 µM, 72 h, coculture fibroblast: HMF | 0.523
0.1 µM, 72 h, coculture fibroblast: HPFa | 0.38
0.1 µM, 72 h, coculture fibroblast: HUF | 0.383
0.1 µM, 72 h, coculture fibroblast: Hs5 | 0.6318
0.1 µM, 72 h, coculture fibroblast: Hs27A | 0.419
0.1 µM, 72 h, coculture fibroblast: Hs343T | 0.468
0.1 µM, 72 h, coculture fibroblast: WS1 | 0.336
1 µM, 8 h, coculture fibroblast: C12385 | 0.8294
1 µM, 8 h, coculture fibroblast: H6013 | 0.769
1 µM, 8 h, coculture fibroblast: H6019 | 0.814
1 µM, 8 h, coculture fibroblast: H6076 | 0.8053
1 µM, 8 h, coculture fibroblast: H6231 | 0.8257
1 µM, 8 h, coculture fibroblast: HADF | 0.755
1 µM, 8 h, coculture fibroblast: HCFa | 0.838
1 µM, 8 h, coculture fibroblast: HCPF | 0.826
1 µM, 8 h, coculture fibroblast: HHSteC | 0.863
1 µM, 8 h, coculture fibroblast: HMF | 0.799
1 µM, 8 h, coculture fibroblast: HPFa | 0.8952
1 µM, 8 h, coculture fibroblast: HUF | 0.894
1 µM, 8 h, coculture fibroblast: Hs5 | 0.8291
1 µM, 8 h, coculture fibroblast: Hs27A | 0.8
1 µM, 8 h, coculture fibroblast: Hs343T | 0.829
1 µM, 8 h, coculture fibroblast: WS1 | 0.796
1 µM, 16 h, coculture fibroblast: C12385 | 0.684
1 µM, 16 h, coculture fibroblast: H6013 | 0.6643
1 µM, 16 h, coculture fibroblast: H6019 | 0.693
1 µM, 16 h, coculture fibroblast: H6076 | 0.756
1 µM, 16 h, coculture fibroblast: H6231 | 0.756
1 µM, 16 h, coculture fibroblast: HADF | 0.65
1 µM, 16 h, coculture fibroblast: HCFa | 0.722
1 µM, 16 h, coculture fibroblast: HCPF | 0.752
1 µM, 16 h, coculture fibroblast: HHSteC | 0.762
1 µM, 16 h, coculture fibroblast: HMF | 0.776
1 µM, 16 h, coculture fibroblast: HPFa | 0.788
1 µM, 16 h, coculture fibroblast: HUF | 0.7803
1 µM, 16 h, coculture fibroblast: Hs5 | 0.78
1 µM, 16 h, coculture fibroblast: Hs27A | 0.745
1 µM, 16 h, coculture fibroblast: Hs343T | 0.797
1 µM, 16 h, coculture fibroblast: WS1 | 0.649
1 µM, 24 h, coculture fibroblast: C12385 | 0.633
1 µM, 24 h, coculture fibroblast: H6013 | 0.621
1 µM, 24 h, coculture fibroblast: H6019 | 0.647
1 µM, 24 h, coculture fibroblast: H6076 | 0.707
1 µM, 24 h, coculture fibroblast: H6231 | 0.642
1 µM, 24 h, coculture fibroblast: HADF | 0.585
1 µM, 24 h, coculture fibroblast: HCFa | 0.657
1 µM, 24 h, coculture fibroblast: HCPF | 0.697
1 µM, 24 h, coculture fibroblast: HHSteC | 0.72
1 µM, 24 h, coculture fibroblast: HMF | 0.68
1 µM, 24 h, coculture fibroblast: HPFa | 0.726
1 µM, 24 h, coculture fibroblast: HUF | 0.7289
1 µM, 24 h, coculture fibroblast: Hs5 | 0.719
1 µM, 24 h, coculture fibroblast: Hs27A | 0.735
1 µM, 24 h, coculture fibroblast: Hs343T | 0.751
1 µM, 24 h, coculture fibroblast: WS1 | 0.586
1 µM, 32 h, coculture fibroblast: C12385 | 0.548
1 µM, 32 h, coculture fibroblast: H6013 | 0.608
1 µM, 32 h, coculture fibroblast: H6019 | 0.566
1 µM, 32 h, coculture fibroblast: H6076 | 0.709
1 µM, 32 h, coculture fibroblast: H6231 | 0.608
1 µM, 32 h, coculture fibroblast: HADF | 0.547
1 µM, 32 h, coculture fibroblast: HCFa | 0.604
1 µM, 32 h, coculture fibroblast: HCPF | 0.65
1 µM, 32 h, coculture fibroblast: HHSteC | 0.666
1 µM, 32 h, coculture fibroblast: HMF | 0.638
1 µM, 32 h, coculture fibroblast: HPFa | 0.6227
1 µM, 32 h, coculture fibroblast: HUF | 0.6278
1 µM, 32 h, coculture fibroblast: Hs5 | 0.707
1 µM, 32 h, coculture fibroblast: Hs27A | 0.76
1 µM, 32 h, coculture fibroblast: Hs343T | 0.723
1 µM, 32 h, coculture fibroblast: WS1 | 0.484
1 µM, 40 h, coculture fibroblast: C12385 | 0.487
1 µM, 40 h, coculture fibroblast: H6013 | 0.539
1 µM, 40 h, coculture fibroblast: H6019 | 0.53
1 µM, 40 h, coculture fibroblast: H6076 | 0.634
1 µM, 40 h, coculture fibroblast: H6231 | 0.527
1 µM, 40 h, coculture fibroblast: HADF | 0.453
1 µM, 40 h, coculture fibroblast: HCFa | 0.512
1 µM, 40 h, coculture fibroblast: HCPF | 0.572
